Measured values as given in PubChem BioAssay AID248 (DTP/NCI, 2004).
The list is a part of this screen's results and no random one: it is rich in T/C values a quarter to a half above the control, in often repeated tests (any T/C) and in doses without a T/C. Other doses and runs of a compound stand elsewhere. T/C: endpoint of the treated group in % of that of the vehicle group. Some entries give survivors of the animals treated and no T/C: the source files T/C as zero there, which appears to mark a toxic dose or a test without result, not a measured value. Some survivor counts are full or nearly so, which does not show that the dose was tolerated: the source hardly ever lists a survival T/C far under the control, and the zero likely stands for such cases as well. Survivors were counted at the toxicity check, usually on the fifth day, unless a day is given; later deaths do not show. Schedules are NCI's codes, taken here to give the interval after Q, in days (D) or hours (H), and the number of doses after X. Some schedule codes hold Z or #, which are not explained here. Some entries hold several experiments; the results are listed from low to high. Where survival is the endpoint, the PubChem record calls one and a half times the control and up active, and a quarter to a half above the control has no call in these data; cut-offs in other NCI protocols can differ. Brackets with × say how often a value occurs here. Some T/C values carry the count of animals alive at the toxicity check (mostly the fifth day); without a count, all were alive then.

System: L1210 leukemia ip in BDF1 mice, survival T/C
Assay: NCI In Vivo Anticancer Drug Screen. Data for tumor model L1210 Leukemia (intraperitoneal) in B6D2F1 (BDF1) mice
Conditions: T/C endpoint: mean survival time, higher T/C = longer survival
[1] = dose: 400.0 mg/kg/injection, schedule: Q04DX003 (ip), vehicle: Klucel (hydroxypropylcellulose) (HPC)
[2] = dose: 50.0 mg/kg/injection, schedule: Q01DX009 (ip), vehicle: saline
[3] = dose: 100.0 mg/kg/injection, schedule: Q01DX009 (ip), vehicle: saline
[4] = dose: 200.0 mg/kg/injection, schedule: Q01DX009 (ip), vehicle: saline
[5] = dose: 100.0 mg/kg/injection, schedule: Q01DX001 (ip), vehicle: carboxymethylcellulose (CMC)
[6] = dose: 200.0 mg/kg/injection, schedule: Q01DX001 (ip), vehicle: carboxymethylcellulose (CMC)
[7] = dose: 37.0 mg/kg/injection, schedule: Q01DX Z (ip), vehicle: other
[8] = dose: 50.0 mg/kg/injection, schedule: Q01DX001 (ip), vehicle: carboxymethylcellulose (CMC)
[9] = dose: 200.0 mg/kg/injection, schedule: Q01DX009 (ip), vehicle: saline with Tween-80
[10] = dose: 400.0 mg/kg/injection, schedule: Q01DX009 (ip), vehicle: saline with Tween-80
[11] = dose: 400.0 mg/kg/injection, schedule: Q01DX009 (ip), vehicle: saline
[12] = dose: 100.0 mg/kg/injection, schedule: Q01DX001 (ip), vehicle: saline
[13] = dose: 200.0 mg/kg/injection, schedule: Q01DX001 (ip), vehicle: saline
[14] = dose: 400.0 mg/kg/injection, schedule: Q01DX001 (ip), vehicle: saline

## N#Cc1nc2ccccc2nc1C#N
dose: 50.0 mg/kg/injection, schedule: Q01DX009 (ip), vehicle: Klucel (hydroxypropylcellulose) (HPC)
  survivor count: 5 of 6
dose: 50.0 mg/kg/injection, schedule: Q04DX003 (ip), vehicle: Klucel (hydroxypropylcellulose) (HPC)
  survivor count: 6 of 6
dose: 100.0 mg/kg/injection, schedule: Q04DX003 (ip), vehicle: Klucel (hydroxypropylcellulose) (HPC)
  survivor count: 5 of 6
dose: 200.0 mg/kg/injection, schedule: Q04DX003 (ip), vehicle: Klucel (hydroxypropylcellulose) (HPC)
  survivor count: 2 of 6
[1]
  survivor count: 0 of 6

## C/C=C/C[P+](CC)(c1ccccc1)c1ccccc1
dose: 6.25 mg/kg/injection, schedule: Q01DX009 (ip), vehicle: saline
  survivor count: 0 of 3
dose: 12.5 mg/kg/injection, schedule: Q01DX009 (ip), vehicle: saline with Tween-80
  survivor count: 0 of 3
dose: 12.5 mg/kg/injection, schedule: Q01DX009 (ip), vehicle: saline
  survivor count: 0 of 3
dose: 25.0 mg/kg/injection, schedule: Q01DX009 (ip), vehicle: saline with Tween-80
  survivor count: 0 of 3
dose: 50.0 mg/kg/injection, schedule: Q01DX009 (ip), vehicle: saline with Tween-80
  survivor count: 0 of 3
[2]
  survivor count: 0 of 3
[3]
  survivor count: 0 of 3
[4]
  survivor count: 0 of 3

## OC1c2ccccc2CC1N1CCCCC1 (stereo not drawn)
dose: 200.0 mg/kg/injection, schedule: Q01DX001 (ip), vehicle: saline with Tween-80
  survivor count: 2 of 6
dose: 400.0 mg/kg/injection, schedule: Q01DX001 (ip), vehicle: saline with Tween-80
  survivor count: 0 of 6

## C=C1C(=O)O[C@H]2C[C@@H](C)[C@@H]3CC(=O)OC[C@@]3(C)CC12 (stereo partly drawn)
dose: 200.0 mg/kg/injection, schedule: Q04DX003 (ip), vehicle: saline with Tween-80
  survivor count: 3 of 6
dose: 400.0 mg/kg/injection, schedule: Q04DX003 (ip), vehicle: saline with Tween-80
  survivor count: 0 of 6

## CN1CCc2ccccc2C1Cc1cc(OCc2ccccc2)ccc1N (stereo not drawn)
[5]
  survivor count: 2 of 4
[6]
  survivor count: 1 of 4
dose: 400.0 mg/kg/injection, schedule: Q01DX001 (ip), vehicle: carboxymethylcellulose (CMC)
  survivor count: 0 of 4

## Nc1nc(SN=Nc2ccc([As](=O)(O)O)cc2)c2[nH]cnc2n1
dose: 1.0 mg/kg/injection, schedule: Q01DX Z (ip), vehicle: other
  T/C: 128 % of control (2×)
dose: 2.5 mg/kg/injection, schedule: Q01DX Z (ip), vehicle: other
  T/C: 125 % of control
dose: 5.0 mg/kg/injection, schedule: Q01DX015 (ip), vehicle: carboxymethylcellulose (CMC)
  T/C: 142 % of control
dose: 5.0 mg/kg/injection, schedule: Q01DX Z (ip), vehicle: other
  T/C: 134 (2×), 141, 144 % of control
dose: 7.0 mg/kg/injection, schedule: Q01DX Z (ip), vehicle: other
  T/C: 134 [5 of 6 alive], 146, 153, 158 % of control
dose: 11.0 mg/kg/injection, schedule: Q01DX Z (ip), vehicle: other
  T/C: 134 % of control
dose: 16.0 mg/kg/injection, schedule: Q01DX Z (ip), vehicle: other
  T/C: 145 % of control
dose: 17.0 mg/kg/injection, schedule: Q01DX Z (ip), vehicle: other
  T/C: 131 % of control [5 of 6 alive]
dose: 20.0 mg/kg/injection, schedule: Q01DX015 (ip), vehicle: carboxymethylcellulose (CMC)
  survivor count: 0 of 6
dose: 25.0 mg/kg/injection, schedule: Q01DX001 (ip), vehicle: carboxymethylcellulose (CMC)
  T/C: 126 and 145 % of control
dose: 25.0 mg/kg/injection, schedule: Q01DX Z (ip), vehicle: other
  T/C: 139 % of control
[7]
  T/C: 126 % of control
  survivor count: 2 of 6
dose: 40.0 mg/kg/injection, schedule: Q01DX015 (ip), vehicle: carboxymethylcellulose (CMC)
  survivor count: 0 of 6
[8]
  T/C: 135 % of control [7 of 10 alive]
  survivor count: 4 of 10
dose: 84.0 mg/kg/injection, schedule: Q01DX Z (ip), vehicle: other
  survivor count: 1 of 6
[5]
  survivor count: 0 of 10 and 2 of 10
dose: 100.0 mg/kg/injection, schedule: Q## X001 (ip), vehicle: carboxymethylcellulose (CMC)
  survivor count: 10 of 10
[6]
  survivor count: 0 of 10
dose: 200.0 mg/kg/injection, schedule: Q## X001 (ip), vehicle: carboxymethylcellulose (CMC)
  survivor count: 10 of 10

## Cc1c(Br)c(C)c(Br)c(OCC(=O)O)c1Br
dose: 400.0 mg/kg/injection, schedule: Q04DX002 (ip), vehicle: Klucel (hydroxypropylcellulose) (HPC)
  survivor count: 0 of 3

## O=C(NS(=O)(=O)c1ccc(Cl)cc1)c1ccccc1
[9]
  survivor count: 6 of 6
[10]
  survivor count: 0 of 6

## O=C(CCCCC(=O)Nc1ccc(C(=O)Nc2cc(C3=NCCN3)cc(C3=NCCN3)c2)cc1)Nc1ccc(C(=O)Nc2cc(C3=NCCN3)cc(C3=NCCN3)c2)cc1
dose: 80.0 mg/kg/injection, schedule: Q01DX Z (ip), vehicle: saline
  survivor count: 2 of 6

## CC(C)OP(=O)(CP(=O)(OC(C)C)OC(C)C)OC(C)C
[11]
  survivor count: 5 of 6

## CN(C)/N=C/c1cccc[n+]1C
dose: 25.0 mg/kg/injection, schedule: Q01DX009 (ip), vehicle: saline
  survivor count: 0 of 6
[2]
  survivor count: 0 of 6
[3]
  survivor count: 0 of 6
[4]
  survivor count: 0 of 6
[11]
  survivor count: 0 of 6

## CCCCCc1ccccc1
dose: 1600.0 mg/kg/injection, schedule: Q01DX Z (ip), vehicle: carboxymethylcellulose (CMC)
  survivor count: 0 of 6

## c1ccc(CN2CCCCC2)nc1
dose: 40.0 mg/kg/injection, schedule: Q01DX009 (ip), vehicle: Klucel (hydroxypropylcellulose) (HPC)
  survivor count: 2 of 6

## O=S(=O)(Nc1cc(S(=O)(=O)c2ccccc2)c(NS(=O)(=O)c2ccccc2)cc1Cl)c1ccccc1
dose: 100.0 mg/kg/injection, schedule: Q01DX009 (ip), vehicle: Klucel (hydroxypropylcellulose) (HPC)
  survivor count: 6 of 6
[1]
  survivor count: 6 of 6

## Oc1ccc2ccccc2c1Cc1cccc2ccccc12
[10]
  survivor count: 2 of 6

## Cc1cc(N(CCOS(C)(=O)=O)CCOS(C)(=O)=O)ccc1C=Nc1ccc(C(=O)O)c(O)c1
dose: 9.0 mg/kg/injection, schedule: Q01DX009 (ip), vehicle: saline with Tween-80
  T/C: 125 % of control
dose: 100.0 mg/kg/injection, schedule: Q01DX009 (ip), vehicle: saline with Tween-80
  survivor count: 2 of 6
[9]
  survivor count: 2 of 6
[10]
  survivor count: 0 of 6

## Cc1ccc(Cl)cc1NC(=O)Nc1ccccc1Cl
dose: 400.0 mg/kg/injection, schedule: Q01DX009 (ip), vehicle: Klucel (hydroxypropylcellulose) (HPC)
  survivor count: 2 of 6

## CCCCCCCCCCCCSC1=CC(=O)C=CC1=O
[12]
  survivor count: 3 of 6
[13]
  survivor count: 2 of 4
[14]
  survivor count: 0 of 6

## CC(C)CCCC(C)C1CCC2C3CC(O)C4=CC(O)CCC4(C)C3CCC12C (stereo not drawn)
dose: 300.0 mg/kg/injection, schedule: Q01DX001 (ip), vehicle: other
  survivor count: 2 of 6

## O=C(C[n+]1cccc2ccccc21)c1ccc(-c2ccc(C(=O)C[n+]3cccc4ccccc43)cc2)cc1
[12]
  survivor count: 0 of 6
[13]
  survivor count: 0 of 6
[14]
  survivor count: 0 of 6
